For 45 compounds, DAPI activity (viability loss) results are on record in PubChem BioAssay AID651582 (Sanford-Burnham Center for Chemical Genomics, 2012).

The other results are listed elsewhere or left out.

The assay can be described thus: inhibitors of triacylglycerol accumulation, primary screen, cell-based, uHTS, fluorescence, H9c2 (AID 651582). The settings on record: H9c2 cells, Nile Red lipid (TAG) fluorescence; DAPI nuclei count viability; at 12.5 µM; cells loaded with 200 µM oleic acid.
On to `Cc1ccc(C(=O)NCC2(N(C)C)CCCCC2)o1`, for which the DAPI activity (viability loss) was determined as 0.455%.
As for `O=C(NCC1(N2CCCCC2)CCCCC1)c1cncc(Br)c1`, the figure is -1.54%.
Take `O=C(NCC1(N2CCOCC2)CCCCC1)c1cc(F)c(F)cc1Cl`: the DAPI activity (viability loss) stood at 0.813%.
As for `CN(C)c1cccc(C(=O)NCC2(N3CCCCC3)CCCCC2)c1`, the figure is 16.4%; as for `COc1ccc(CN(CCCl)CCCl)cc1Cl`, 15.3%; as for `CC(C)c1ccc(NC2CCN(C(=O)OC(C)(C)C)CC2)cc1`, 4.87%.
As for `CC(C)c1ccc(C(=O)NCC2(N3CCOCC3)CCCCC2)cc1`, the figure is 8.38%.
With `COc1ccc(NC2CCN(C(=O)OC(C)(C)C)CC2)cc1`, the DAPI activity (viability loss) is -0.395%.
As for `O=C(NCC1(N2CCOCC2)CCCCC1)c1cc(=O)[nH]c2ccccc12`, the figure is 1.91%; as for `O=C(NCC1(N2CCCCC2)CCCCC1)c1cccc([N+](=O)[O-])c1`, -4.57%.
Regarding `CSc1ccc(C(=O)NCC2(N3CCOCC3)CCCCC2)cc1`, the DAPI activity (viability loss) was 0.263%.
On to `N#CC1(Nc2ccccc2)CCN(CCc2ccccc2)CC1`, for which the DAPI activity (viability loss) is -0.749%.
As for `CCOC(=O)N1CCC(Nc2ccc(F)cc2)CC1`, the figure is 1.44%.
For the compound `O=P1(N(CCCl)CCCl)SCCCS1`, the DAPI activity (viability loss) came out at 3.79%.
In the case of `CCCCOc1ccc(C(=O)NCC2(N3CCOCC3)CCCCC2)cc1`, the DAPI activity (viability loss) turned out to be 5.62%.
As for `CCOc1ccc(C)cc1CN(CCCl)CCCl`, the figure is -2.25%; as for `COc1ccc(Cl)cc1C(=O)NCC1(N2CCOCC2)CCCCC1`, -4.93%.
As for `O=C(NCC1(N2CCCCC2)CCCCC1)c1ccc(Cl)s1`, the figure is -16.2%.
As for `N#CC1(Nc2ccccc2)CCN(Cc2ccccc2)CC1`, the figure is -11.5%.
`O=C(NCC1(N2CCOCC2)CCCCC1)c1cc2ccccc2o1`: the DAPI activity (viability loss) is -1.46%.
For `O=C(NCC1(N2CCCCC2)CCCCC1)c1ccc(Cl)nc1`, the DAPI activity (viability loss) was -2.19%.
As for `Cc1cccc(NC2(C#N)CCN(Cc3ccccc3)CC2)c1`, the figure is -5%; as for `O=C(NCC1(N2CCCCC2)CCCCC1)c1cccs1`, 0.73%.
As for `O=C(NCC1(N2CCCCC2)CCCCC1)c1ccc(=O)[nH]c1`, the DAPI activity (viability loss) worked out at 3.34%.
As for `COc1ccc(C(=O)NCC2(N3CCCCC3)CCCCC2)c(OC)c1OC`, the figure is -2.91%; as for `CN1CCC(Nc2ccc(Cl)cc2)CC1`, -5.04%; as for `CCC(CO)(C(=O)OC1CN2CCC1CC2)c1ccccc1` (stereo not given), -0.373%.
Take `COc1cc(OC)cc(C(=O)NCC2(N3CCOCC3)CCCCC2)c1`: the DAPI activity (viability loss) is -6.71%.
Consider `CC(C)(C)OC(=O)N1CCC(Nc2ccccc2)CC1`, for which the DAPI activity (viability loss) worked out at 6.69%.
As for `CN1CCC(Nc2ccc(F)c(Cl)c2)CC1`, the figure is -1.81%; as for `CN(C)c1ccc(C(=O)NCC2(N3CCCCC3)CCCCC2)cc1`, 14.9%.
As for `Cn1c(=O)[nH]cc(N(CCCl)CCCl)c1=O`, the figure is -0.189%; as for `O=C(NCC1(N2CCCCC2)CCCCC1)c1ccco1`, 5.81%.
As for `Cc1ccccc1NC1(C#N)CCN(Cc2ccccc2)CC1`, the figure is 5.99%.
For `Cc1ccc(NC2(C#N)CCN(Cc3ccccc3)CC2)cc1`, the DAPI activity (viability loss) was 5.89%.
`Cc1ccc(C(=O)NCC2(N3CCCCC3)CCCCC2)o1`: the DAPI activity (viability loss) is 6.79%.
As for `CC(=O)N(c1ccccc1)C1CCNCC1`, the figure is 8.03%; as for `Cc1cc(N(CCCl)CCCl)ccc1C=O`, 0.849%.
On to `CCCN1CCC(Nc2cc(OC)cc(OC)c2)CC1`, for which the DAPI activity (viability loss) is 1.85%.
As for `c1ccc(CN2CCC(Nc3ccccc3)CC2)cc1`, the figure is 16.8%; as for `N#Cc1ccc(C(=O)NCC2(N3CCCCC3)CCCCC2)cc1`, -0.722%.
As to `N/C(=N\O)c1c(N)no[n+]1[O-]`, the DAPI activity (viability loss) worked out at 1.83%.
On to `COc1ccc(C(=O)NCC2(N3CCOCC3)CCCCC2)cc1OC`, for which the DAPI activity (viability loss) came out at 4.05%.
On to `O=C(NCC1(N2CCOCC2)CCCCC1)c1cc(Br)ccc1Cl`, for which the DAPI activity (viability loss) was found to be 3.56%.
As for `COc1cc(C(=O)NCC2(N3CCOCC3)CCCCC2)cc(OC)c1C`, the figure is 5.34%.
